In PubChem BioAssay AID218 (DTP/NCI, 2004):
The list shows only some results of the screen, not a fair sample: it gathers some chemical classes. Not every dose and run of a compound is shown. T/C gives the treated animals as a percentage of the vehicle group. Some T/C values are marked as having no survivor count here; that says nothing about deaths at the dose. Schedule codes are those of the source, taken here to give the interval after Q, in days (D) or hours (H), and the number of doses after X.

Tested on: C57BL/6 mice, Adenocarcinoma 755 sc, tumor weight T/C
Experiment: NCI In Vivo Anticancer Drug Screen. Data for tumor model Adenocarcinoma 755 (subcutaneous) in C57BL/6 mice
Settings: T/C endpoint: mean tumor weight, schedule: Q01DX011 (ip), vehicle: saline, evaluation day not shown, higher T/C = larger tumour
Description: The antitumor activity of compounds was measured in mice bearing transplantable tumors. Survival or tumor size were measured and the results are expressed as the measurement made in the treated group (T) divided by the measurement made in the vehicle treated control group (C). The tumor model used in this assay is Adenocarcinoma 755 (subcutaneous) in C57BL/6 mice

FCCNCCCl was tested, and the T/C (dose: 1.0 mg/kg/injection) was 76 % of control [survivor count not shown], the T/C (dose: 2.0 mg/kg/injection) was 66 % of control [survivor count not shown] and the T/C (dose: 4.0 mg/kg/injection) was 87 % of control [survivor count not shown]. The T/C (dose: 8.0 mg/kg/injection) was 66 % of control [survivor count not shown].
